Results deposited as PubChem BioAssay AID1259254 (NCATS, 2017).
Here is a random part of about 59,000 reagents. About 1,550 of them (2.6%) count as active. 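G2 share is only a proxy for re-replication; each gene was hit by three separate siRNAs, and active genes were retested.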 A number with no mark means an inactive call. Reagents against one gene are numbered here. Not all columns of the deposit are shown. Not given: the amount of reagent.

Test: 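Genome-wide screen for genes that prevent DNA re-replication in cancer cells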 (primary screen)
Cells: human HCT116 colorectal cancer cells
Reagents: single siRNA against human genes
Time to read-out: 3 days
Measured: 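Imaged Hoechst DNA stain sorts each cell into a cycle phase by DNA amount; per plate, G2 fraction set to 0% for non-targeting and 100% for GMNN siRNA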
Direction: G2 robust z-score and G2 cells, % of GMNN control: higher = more G2 cells, more excess DNA replication
Call rule: 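An siRNA counts as active if its G2 robust z-score lies at least 5 MADs above the screen median; here such calls match roughly 38% of GMNN control or more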

G2 robust z-score	G2 cells, % of GMNN control	gene knocked down	siRNA no.
-0.0916	2.32	THOC2	1
0.247	4.7	THOC2	2
-0.802	-2.68	THOC2	3
-0.924	-3.53	GPRC5B	1
2.41	19.9	GPRC5B	2
-0.292	0.914	GPRC5B	3
0.576	7.02	DEFA6	1
-0.0464	2.64	DEFA6	2
0.516	6.6	DEFA6	3
0.006	3.01	FHOD3	1
-0.343	0.553	FHOD3	2
-0.817	-2.78	FHOD3	3
2.92	23.5	ABT1	1
-0.0401	2.69	ABT1	2
4.08	31.7	ABT1	3
-0.993	-4.02	ANKS1A	1
0.575	7.01	ANKS1A	2
4.43	34.2	ANKS1A	3
10.1 (active)	73.8	PCGF1	1
2.14	18	PCGF1	2
2.09	17.7	PCGF1	3
0.222	4.53	MEGF10	1
3.5	27.6	MEGF10	2
-0.0233	2.8	MEGF10	3
0.73	8.11	RAMAC	1
1.29	12	RAMAC	2
0.0752	3.5	RAMAC	3
0.473	6.3	PRKAB1	1
0.84	8.88	PRKAB1	2
-0.267	1.09	PRKAB1	3
1.98	16.9	GPAA1	1
0.228	4.57	GPAA1	2
-0.872	-3.17	GPAA1	3
-0.241	1.27	PARVA	1
0.858	9	PARVA	2
0.765	8.35	PARVA	3
-0.143	1.96	PTPRA	1
0.76	8.32	PTPRA	2
1.07	10.5	PTPRA	3
0.591	7.12	OXA1L	1
-0.898	-3.35	OXA1L	2
0.275	4.9	OXA1L	3
-1.36	-6.59	CXCR2	1
-1.11	-4.83	CXCR2	2
0.556	6.88	CXCR2	3
7.82 (active)	58	ROR1	1
-1.01	-4.17	ROR1	2
-1.05	-4.44	ROR1	3
8.08 (active)	59.8	RPS20	1
4.52	34.8	RPS20	2
0.737	8.15	RPS20	3
-1.23	-5.7	ABHD8	1
-0.494	-0.508	ABHD8	2
0.534	6.72	ABHD8	3
-0.205	1.52	DCAF8L1	1
0.794	8.55	DCAF8L1	2
0.75	8.24	DCAF8L1	3
-1.26	-5.9	MPP3	1
-0.00194	2.95	MPP3	2
-0.352	0.493	MPP3	3
-1.57	-8.07	ACVR1B	1
-0.601	-1.26	ACVR1B	2
-0.912	-3.45	ACVR1B	3
0.0181	3.09	P2RY14	1
0.343	5.38	P2RY14	2
4.83	37	P2RY14	3
2.14	18.1	OSBPL9	1
-0.569	-1.04	OSBPL9	2
-0.167	1.79	OSBPL9	3
